In PMC10810452:
Results are given in words; binding and its absence hold for the method and conditions named. Binding seen in cells or lysates may run through a third protein. A yes stands for co-enrichment or nearness to the bait. Other partners may have been found.

Sequences of proteins named here, by UniProt entry; tags and fusion partners are left off.
UniProt F5HCV3: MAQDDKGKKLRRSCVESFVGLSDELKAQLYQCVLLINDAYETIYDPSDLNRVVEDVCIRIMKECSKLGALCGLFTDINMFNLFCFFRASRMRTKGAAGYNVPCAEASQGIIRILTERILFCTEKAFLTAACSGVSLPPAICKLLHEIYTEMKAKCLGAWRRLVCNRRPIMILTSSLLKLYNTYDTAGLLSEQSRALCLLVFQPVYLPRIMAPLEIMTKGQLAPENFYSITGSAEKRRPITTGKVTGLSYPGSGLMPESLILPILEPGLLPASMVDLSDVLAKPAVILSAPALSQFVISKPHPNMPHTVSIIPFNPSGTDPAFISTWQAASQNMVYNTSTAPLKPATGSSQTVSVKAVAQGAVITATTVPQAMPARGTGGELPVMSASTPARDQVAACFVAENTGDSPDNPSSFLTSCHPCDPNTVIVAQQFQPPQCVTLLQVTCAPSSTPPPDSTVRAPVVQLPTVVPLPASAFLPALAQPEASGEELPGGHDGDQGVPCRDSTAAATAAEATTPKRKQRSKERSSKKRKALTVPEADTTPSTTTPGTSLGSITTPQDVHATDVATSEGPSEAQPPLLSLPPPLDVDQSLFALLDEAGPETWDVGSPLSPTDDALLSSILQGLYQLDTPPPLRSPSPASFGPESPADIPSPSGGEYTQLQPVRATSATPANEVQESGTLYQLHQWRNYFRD
UniProt Q15596: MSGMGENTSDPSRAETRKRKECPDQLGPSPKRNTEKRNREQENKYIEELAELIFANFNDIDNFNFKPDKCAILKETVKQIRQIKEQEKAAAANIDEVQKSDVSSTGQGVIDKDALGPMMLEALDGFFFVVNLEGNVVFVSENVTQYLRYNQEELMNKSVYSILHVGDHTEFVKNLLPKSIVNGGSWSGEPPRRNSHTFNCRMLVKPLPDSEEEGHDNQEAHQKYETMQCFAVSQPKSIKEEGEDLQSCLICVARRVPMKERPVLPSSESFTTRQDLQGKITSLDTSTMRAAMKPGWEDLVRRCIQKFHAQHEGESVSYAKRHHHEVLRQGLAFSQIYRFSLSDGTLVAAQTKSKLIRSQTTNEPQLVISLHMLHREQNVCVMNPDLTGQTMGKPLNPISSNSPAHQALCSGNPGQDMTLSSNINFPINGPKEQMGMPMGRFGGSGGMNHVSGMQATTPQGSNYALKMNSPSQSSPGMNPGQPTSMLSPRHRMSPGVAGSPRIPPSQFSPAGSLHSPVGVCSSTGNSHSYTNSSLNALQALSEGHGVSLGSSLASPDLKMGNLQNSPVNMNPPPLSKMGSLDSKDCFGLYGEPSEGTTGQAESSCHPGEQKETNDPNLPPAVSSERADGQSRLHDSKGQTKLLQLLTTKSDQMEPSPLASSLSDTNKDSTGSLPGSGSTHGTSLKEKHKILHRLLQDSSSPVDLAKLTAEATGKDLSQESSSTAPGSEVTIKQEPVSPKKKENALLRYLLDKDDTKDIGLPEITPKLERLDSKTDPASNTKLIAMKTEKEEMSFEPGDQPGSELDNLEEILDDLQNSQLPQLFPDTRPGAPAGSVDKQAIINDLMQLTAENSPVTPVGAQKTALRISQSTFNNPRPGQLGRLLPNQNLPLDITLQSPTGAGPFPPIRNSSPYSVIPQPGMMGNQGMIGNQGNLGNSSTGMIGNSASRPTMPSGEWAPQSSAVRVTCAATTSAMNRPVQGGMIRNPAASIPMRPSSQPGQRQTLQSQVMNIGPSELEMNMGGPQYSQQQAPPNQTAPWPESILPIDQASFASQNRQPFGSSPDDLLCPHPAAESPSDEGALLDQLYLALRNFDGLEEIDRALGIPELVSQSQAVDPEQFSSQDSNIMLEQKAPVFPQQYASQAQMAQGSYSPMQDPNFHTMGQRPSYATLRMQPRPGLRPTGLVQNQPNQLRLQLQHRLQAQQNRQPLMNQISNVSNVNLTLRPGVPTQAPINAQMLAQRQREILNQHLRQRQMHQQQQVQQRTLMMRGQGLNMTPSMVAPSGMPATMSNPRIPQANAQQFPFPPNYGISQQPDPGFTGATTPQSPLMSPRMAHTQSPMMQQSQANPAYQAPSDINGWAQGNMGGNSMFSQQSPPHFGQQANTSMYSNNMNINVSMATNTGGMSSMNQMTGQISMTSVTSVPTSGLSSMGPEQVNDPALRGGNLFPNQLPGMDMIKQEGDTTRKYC

Target: FLAG-HA-K-RTA (Kaposi's sarcoma-associated herpesvirus (KSHV, human herpesvirus 8)) (UniProt F5HCV3)
Assay: affinity purification with mass spectrometry

NCOA2 (from UniProt Q15596 1-1464)
binding: binds
